For this assay, the target named is E. coli PNP (Escherichia coli, UniProt P0ABP8). Format: biochemical.

The chains behind the UniProt entries cited, without tags or fusion partners. Residues count along the entry.
UniProt P0ABP8, 2-239: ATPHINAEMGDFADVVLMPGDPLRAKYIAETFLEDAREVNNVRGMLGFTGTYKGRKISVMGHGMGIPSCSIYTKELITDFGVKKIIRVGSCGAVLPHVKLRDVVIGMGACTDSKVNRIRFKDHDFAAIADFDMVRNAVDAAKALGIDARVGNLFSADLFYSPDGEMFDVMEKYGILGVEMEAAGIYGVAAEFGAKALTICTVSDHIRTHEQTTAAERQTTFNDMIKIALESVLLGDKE

We go through 1 compound from patent publication US6958318B2, “Recombinant bacterial cells for delivery of PNP to tumor cells” (The UAB Research Foundation, priority 1993, dated 2005).

Consider `Nc1ncnc2c1ncn2[C@H]1O[C@H](CO)[C@@H](O)[C@H]1O` [α-adenosine], for which the “Substrate quality for bacterial (E. coli) PNP” value was “moderate substrates”.
